A short description of this assay: qHTS Assay for Lipid Storage Modulators in Drosophila S3 Cells.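 As to cell number change: cells counted by Cell Tracker Red CMTPX staining in the red channel.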 Conditions: BODIPY lipid droplet fluorescence, 18-24 h; for cell number change: measured here: cell count max response, cells fed with added oleic acid. Put shortly: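 Laser-scanning cytometry quantifies lipid droplet accumulation (500–530 nm total intensity; droplet/cell object ratio) in oleic acid-fed (400 uM added) Drosophila S3 cells treated with a concentration series. 20 uM Triacsin C defined 100% inhibition.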
Background: Quantitative high-throughput screening tests each substance at several concentrations.

[1] abbreviates: measured here: cell number channel AC50, cells fed with added oleic acid.
Where [2] appears, read: measured here: lipid fluorescence (Fed channel) AC50, cells fed with added oleic acid.

Molecules are shown by their SMILES. Some of the results follow. The main result of the screen is listed elsewhere. These columns were measured beside it and carry no call. Compounds called inactive in the main read-out are mostly missing here. The note in brackets gives the kind of curve behind each potency; many fits are weak.

Broadly, the AC50 is the concentration giving half of the maximal activity seen. A high value points to activity only at high concentration. Take `C/C(CC1CC(C)(C)OC1=O)=N\NC(N)=S` (configuration not stated): the cell number change is -18.5%. For the same compound, the AC50 under setting [1] is 0.461 µM [falling, partial curve, poor fit]. Moreover, the AC50 under setting [2] is 0.0326 µM [falling, full curve, poor fit].

Take `COc1ccccc1NS(=O)(=O)c1cc(NC(=O)CNC(=O)c2ccc(C)s2)ccc1Cl`: the cell number change is -50%. In addition, under setting [1], the concentration at half-maximal activity (AC50) was 0.0058 µM [falling, full curve, poor fit]. Further, the AC50 under setting [2] is 16.4 µM [rising, single point].

Regarding `Cc1nc(Nc2ccc3c(c2)OCCO3)c2c(C)c(C)sc2n1`, the cell number change was -4.64%.

Take `O=C(c1cccc(-c2ccc(O)cc2)c1)N1CCN(c2ccc(F)cc2)CC1`: the cell number change was 12.8%. The half-maximal activity concentration (AC50) under setting [2] is 0.116 µM [rising, single point].

Consider `CCn1c(CN2CCN(Cc3ccc(C)cc3)C(CCO)C2)nc2ccccc21` (configuration not stated), for which the cell number change worked out at 19.1%.

Turning to `CN1CCN(C(=O)c2cnn(-c3ccccc3)c2NC(=O)c2ccccc2Cl)CC1`, the cell number change is 0.867%.

As for `COc1cccc(CNC(=O)CCNC(=O)c2ccco2)c1`, the cell number change is -16.5%.

Take `O=C(OCC(=O)N1CCN(C(=O)c2ccco2)CC1)c1cn(-c2ccccc2)nc1-c1ccccc1`: the cell number change was 6.65%. Further, under setting [1], the concentration at half-maximal activity (AC50) is 0.92 µM [rising, full curve, poor fit].

With `Cc1c(C(=O)Nc2ccc3c(c2)OCCO3)cnn1C`, the cell number change was 3.04%.

As to `FC(F)(F)c1cc(C(F)(F)F)c2ccc(N/N=C/c3ccccc3)nc2n1`, the cell number change was -15.3%. Moreover, the AC50 under setting [2] is 20.6 µM [falling, partial curve, poor fit].

As to `Cc1ccc(C(=O)NNC(=O)COC(=O)COc2ccccc2C#N)cc1`, the cell number change was -40.2%. For the same compound, under setting [1], the AC50 was 4.11 µM [falling, partial curve, poor fit]. In addition, under setting [2], the AC50 was 4.61 µM [falling, partial curve, poor fit].

Take `Cc1ccc(C(=O)CNc2ccccc2C)cc1`: the cell number change is 67.2%. In addition, the AC50 under setting [1] was 23.1 µM [rising, single point]. Also, the AC50 under setting [2] is 0.116 µM [falling, full curve, poor fit].

`O=C(OCCc1cc2ccccc2c(=O)o1)c1ccc(C(F)(F)F)cc1`: the cell number change is -47%. For the same compound, under setting [1], the concentration at half-maximal activity (AC50) was 0.092 µM [falling, full curve, poor fit]. Moreover, the AC50 under setting [2] is 0.092 µM [falling, full curve, poor fit].

As for `Cc1ccccc1OC(C)C(=O)Nc1ccc2c(c1)OCCO2` (configuration not stated), the cell number change turned out to be 34%. Further, the AC50 under setting [1] is 6.51 µM [rising, partial curve, poor fit]. Besides, the AC50 under setting [2] is 29.1 µM [rising, single point].

Turning to `CSc1ccccc1NC(=O)CCc1ccccc1`, the cell number change was -14.8%. In addition, under setting [1], the AC50 is 6.51 µM [falling, single point]. Also, the concentration at half-maximal activity (AC50) under setting [2] was 2.59 µM [falling, single point].

Turning to `CN(C(=O)CSc1nc(N)c2c3c(sc2n1)CSC(C)(C)C3)c1ccccc1`, the cell number change is -28.2%. Moreover, under setting [2], the half-maximal activity concentration (AC50) is 16.4 µM [falling, single point].

With `Cc1ccc(C)c(N2CCN(CCCNC(=O)Cn3cccc3C(=O)c3ccccc3C)CC2)c1`, the cell number change was -13.9%. The AC50 under setting [2] was 29.1 µM [falling, single point].

In the case of `CCOc1cc(S(=O)(=O)NCCCN2CCOCC2)ccc1F`, the cell number change turned out to be 24.3%.

As for `O=[N+]([O-])c1ccc2nc(-c3ccccc3[N+](=O)[O-])[nH]c2c1`, the cell number change is -17.3%. In addition, the AC50 under setting [2] is 29.1 µM [falling, single point].

For the compound `COc1ccc(C(=O)NC(=S)SCC(=O)O)cc1`, the cell number change was -16.5%. The AC50 under setting [2] was 0.651 µM [falling, full curve].

Turning to `CCc1nnc(NC(=O)C2CC(=O)N(CCc3ccc(F)cc3)C2)s1` (configuration not stated), the cell number change stood at 16.2%. Further, the AC50 under setting [2] was 11.6 µM [falling, partial curve, poor fit].

Consider `COc1ccc(C2=NN(c3nc(-c4ccc(CNC(C)=O)cc4)cs3)C(c3ccco3)C2)cc1` (configuration not stated), for which the cell number change was determined as 35%. Under setting [1], the AC50 is 32.6 µM [rising, partial curve, poor fit].

As for `Cc1cc(C)n(CCC(=O)N/N=C/c2cccc([N+](=O)[O-])c2)n1`, the cell number change was determined as 22.5%. The AC50 under setting [1] is 3.26 µM [rising, single point]. For the same compound, the AC50 under setting [2] is 0.517 µM [rising, full curve].

Consider `CCOC(=O)N1CCN(C(=O)c2ccc3c(c2)N(Cc2cc(C)ccc2C)C(=O)c2ccccc2S3=O)CC1` (configuration not stated), for which the cell number change was -29.8%.

As for `Cc1ccc2nc(C)c(C(=O)N/N=C/c3cccc([N+](=O)[O-])c3)cc2c1`, the cell number change is 41.8%. For the same compound, under setting [1], the AC50 is 6.51 µM [falling, single point]. The AC50 under setting [2] is 0.116 µM [rising, full curve].

On to `Cc1ccc2oc(C(F)(F)C(F)F)cc(=O)c2c1`, for which the cell number change was -17.4%. Also, the concentration at half-maximal activity (AC50) under setting [1] was 0.164 µM [falling, full curve, poor fit].

For `CCCCOC(=O)c1ccc(NS(=O)(=O)c2cc(-c3nnnn3CC)ccc2OC)cc1`, the cell number change is -13.4%. Moreover, under setting [2], the AC50 is 2.59 µM [rising, partial curve].

Take `COc1ccc(NC(=O)C2CCCO2)cc1OC` (configuration not stated): the cell number change was -0.71%.

Turning to `O=C(COC(=O)CC1CC2CCC1C2)Nc1ccc(Cl)c(S(=O)(=O)N2CCOCC2)c1` (configuration not stated), the cell number change is 22.4%. The AC50 under setting [2] is 0.58 µM [falling, full curve].

On to `O=C(Cc1ccccc1Cl)NCc1cccnc1`, for which the cell number change was -20.8%.

Regarding `N#Cc1nc(COc2cccc(Cl)c2)oc1N1CCN(c2ccccc2)CC1`, the cell number change came out at 15.4%. Besides, the AC50 under setting [2] was 2.31 µM [rising, partial curve].

For `OC(COC(c1ccc(Cl)cc1)c1ccc(Cl)cc1)CN1CCCC1` (configuration not stated), the cell number change is -10.8%. The AC50 under setting [2] was 0.13 µM [falling, full curve].

In the case of `C=CC[n+]1c(C)csc1Nc1ccc(C(=O)O)cc1`, the cell number change came out at 25.5%. Further, the AC50 under setting [2] was 16.4 µM [rising, partial curve, poor fit].

For `CCOc1ccc(C(=O)Nc2c(C(=O)N3CCC(N4CCCCC4)CC3)oc3ccccc23)cc1`, the cell number change is 26.6%. The AC50 under setting [1] is 0.164 µM [rising, full curve, poor fit].

Turning to `CC(NC(=O)COC(=O)CNC(=O)C1CCCCC1)c1ccccc1` (configuration not stated), the cell number change was determined as 6.55%. Moreover, the half-maximal activity concentration (AC50) under setting [2] is 20.6 µM [rising, partial curve, poor fit].

As to `Cc1cccc(C)c1NC(=S)Nc1ccc(Cl)c(Cl)c1`, the cell number change is -72%. Moreover, the AC50 under setting [1] is 29.1 µM [falling, single point].

With `O=C1C(=O)N(CCCN2CCOCC2)C(c2ccc(F)cc2)/C1=C(/O)c1ccccc1` (configuration not stated), the cell number change is 40.3%. Moreover, the AC50 under setting [1] is 0.517 µM [rising, full curve, poor fit]. The AC50 under setting [2] is 0.58 µM [falling, single point].

Consider `COc1ccc(Br)cc1CNC(=O)C1CCCN(S(=O)(=O)N2CC(C)CC(C)C2)C1` (configuration not stated), for which the cell number change was determined as 18%.

As to `Cc1ccc(S(=O)(=O)CCC(=O)Nc2nc(C(C)(C)C)cs2)cc1`, under setting [2], the AC50 was 20.6 µM [falling, partial curve].

`CCC(Oc1ccccc1)C(=O)Nc1ccccc1N1CCCCC1` (configuration not stated): the cell number change is -13.5%.

Consider `COc1ccc(C(=O)C=CNNC(=O)c2ccc(Cl)cc2)cc1`, for which the cell number change is -2.93%. Besides, under setting [2], the AC50 is 2.06 µM [rising, single point].

As for `O=C(CCC(=O)OCC(=O)c1cccc([N+](=O)[O-])c1)Nc1cccc(Cl)c1Cl`, the cell number change stood at 137%. Besides, under setting [1], the AC50 was 29.1 µM [rising, single point]. Moreover, the AC50 under setting [2] is 20.6 µM [rising, single point].

On to `CCC(C(=O)OCC(=O)Nc1ccc(C(=O)Nc2ccc(OC)cc2)cc1)c1ccccc1` (configuration not stated), for which the cell number change was -44.9%. The AC50 under setting [1] is 6.51 µM [rising, single point]. Also, under setting [2], the AC50 was 0.58 µM [falling, full curve].

As to `Cc1cc(S(=O)(=O)N2CCOCC2)ccc1OCC(=O)Nc1ccc(F)cc1F`, the cell number change came out at 53.3%. In addition, the AC50 under setting [1] is 13 µM [rising, partial curve, poor fit]. For the same compound, the AC50 under setting [2] was 29.1 µM [falling, single point].

As for `COc1ccccc1C(=O)Nc1cccc2c1CCCC2`, the cell number change is -28%.

For `CCCn1c(SCC(=O)NC(=O)NCc2ccco2)n[nH]c1=O`, the cell number change was determined as 4.46%. The AC50 under setting [2] is 7.31 µM [falling, partial curve, poor fit].

On to `Cc1ccc(C(=O)CSc2nc(C)cc(SCc3nnc(-c4ccccc4)o3)n2)cc1`, for which the cell number change was 34.1%. Moreover, the AC50 under setting [1] is 0.82 µM [rising, full curve, poor fit]. The half-maximal activity concentration (AC50) under setting [2] is 1.3 µM [rising, partial curve].

As to `COc1ccccc1NC(=O)C(NC(=O)OC(C)(C)C)C(C)OCc1ccccc1` (configuration not stated), the cell number change is -27.3%. Also, the AC50 under setting [2] was 29.1 µM [falling, single point].

Take `CN(Cc1ccc(OC(F)F)cc1)C(=O)c1ccc2nccnc2c1`: the cell number change was 0.218%. In addition, under setting [2], the AC50 was 29.1 µM [rising, single point].

With `CCN(C(=O)c1cccc(NC(=O)c2ccccc2)c1)C1CCCCC1`, the cell number change was -13.9%. Also, the AC50 under setting [2] was 29.1 µM [falling, single point].

Take `COC(=O)/C=C1\S/C(=N\N=C\CC(=O)OC)NC1=O`: the cell number change is -21.8%. For the same compound, the AC50 under setting [2] is 1.3 µM [falling, full curve].

As to `Cc1cc(NC(=O)C(C)SCC(=O)Nc2cc(C(F)(F)F)ccc2N2CCCCC2)no1` (configuration not stated), the AC50 is 2.31 µM [rising, partial curve] under setting [1] and 1.64 µM [rising, partial curve] under setting [2].

With `CN(C)CCN1C(=O)c2oc3ccccc3c(=O)c2C1c1cccc(Br)c1` (configuration not stated), the cell number change is 57.7%. Also, the AC50 under setting [1] was 7.31 µM [rising, partial curve].

Take `C=CCn1cnc2scc(-c3ccc(CC)cc3)c2c1=O`: the cell number change came out at 76.9%. Further, the AC50 under setting [1] was 25.9 µM [rising, partial curve, poor fit]. In addition, the AC50 under setting [2] is 0.82 µM [rising, partial curve].

As for `O=C(/C=C/c1ccccc1[N+](=O)[O-])N1CCN(C(=O)c2ccco2)CC1`, the cell number change came out at 35.3%.

Regarding `Cc1c(Cl)cccc1NS(=O)(=O)c1ccc(-c2ccc(=O)[nH]n2)o1`, the cell number change is 5.11%. Under setting [2], the AC50 was 29.1 µM [falling, single point].

Take `Cc1ccc2oc(C(=O)Nc3ccc(S(=O)(=O)Nc4onc(C)c4C)cc3)cc(=O)c2c1`: the cell number change was -18.9%. Moreover, the AC50 under setting [2] was 0.58 µM [rising, single point].

As to `COc1cc2c(cc1OC)CN(C(=O)CSc1nc(C)cc(C)c1C#N)CC2`, the cell number change was -30%. Further, under setting [2], the AC50 is 29.1 µM [falling, single point].

The values are drawn from PubChem BioAssay AID2685 (National Center for Advancing Translational Sciences (NCATS), 2010).
